Data from patent publication US5928645A, “Extracted substance having anti-HIV activity” (Young Bok Han & Korean Assoc. of Creation Research, priority 1992, dated 1999).
At least one compound was matched to its structure with a doubt left.

System: ABEI-microperoxidase-H2 O2 system
Test: Antioxidant activity by chemiluminescence (inhibition of light intensity)
Format: biochemical
Text: Therefore, we characterized the extract of the present invention with respect to its ability to function as an antioxidant. We compared the extract to the known antioxidant t-butylhydroxy toluene (BHT) using a chemiluminescence assay developed in this laboratory. […] Therefore, it is proposed that the extract has anti-HIV effect.
Materials: microperoxidase (MP, Sigma Chemical Company, St. Louis, Mo., U.S.A.), aminobuty ethylisoluminol (ABEI, Sigma Chemical Company, St. Louis, Mo., U.S.A.), t-butylhydroxy toluene (BHT, Sigma Chemical Company, St. Louis, Mo., U.S.A.).
An ABEI-microperoxidase-H2 O2 system was used to assay the antioxidant activity of the extract of the present invention and also that of the known antioxidant BHT. The activity of berberine as an antioxidant was also assessed.
ABEI was used at 0.18 μM. Compounds being assayed were used at 10 mg/ml as a maximum concentration and also at serial dilutions. 200 μL of ABEI, t-butylhydroxy toluene (BHT), pure berberine or the extracted substance at 10 mg/ml (or a serial dilution thereof) were put in a polystyrene tube suitable for use in a Berthold 9502 luminometer. Hydrogen peroxide (0.35%) and microperoxidase (0.01 mg/ml) were autoinjected into the tube to start the chemiluminescence reaction. Chemiluminescence from the reaction was measured for 2 seconds using a Berthold Luminometer 9502 (Clilumat). In control samples distilled water and ethyl alcohol were used. The antioxidant activity of the extract was compared with commercial antioxidant BHT. The antioxidant activity of BHT has been studied for many years (Branen, A. L.; Toxicological and biochemistry of butylated hydrosyanisole and butylated hydroxytoluene. J. Am. Oil Chem. Soc. 52:59, 1975). BHT removes free radicals in oxidation reactions, and it inhibits oxidation of materials.
An antioxidant present in the sample will prevent ABEI from being oxidized by microperoxidase, thus inhibiting chemiluminescence. Antioxidant activity was calculated from the chemiluminescence intensity using the following expression: [formula]

SMILES: Cc1cc(C(C)(C)C)c(O)c(C(C)(C)C)c1 [BHT, t-butylhydroxy toluene]
- Percentage of inhibition of light intensity (0.63 mg/ml): 93%
- Percentage of inhibition of light intensity (1.25 mg/ml): 97%
- Percentage of inhibition of light intensity (2.5 mg/ml): 98%
- Percentage of inhibition of light intensity (5.0 mg/ml): 99%
- Percentage of inhibition of light intensity (10.0 mg/ml): 99.8%
